Our source for the survivor count values is PubChem BioAssay AID248 (DTP/NCI, 2004).

The list does not hold the whole screen: it is rich in T/C values a quarter to a half above the control, in often repeated tests (any T/C) and in doses without a T/C. Further doses and runs are listed elsewhere. T/C is the treated group as % of the vehicle group. Some doses have a count of surviving animals in place of a T/C: the source holds a T/C of zero for them, seemingly a mark for toxic or unscored doses. Some doses without a T/C left all or most animals alive at the check, yet need not have been tolerated: the source hardly ever lists a survival T/C far under the control, and the zero likely stands for such cases as well. Counts of survivors are from the toxicity check (mostly the fifth day) where no day follows; animals may have died later. Schedule codes are those of the source, taken here to give the interval after Q, in days (D) or hours (H), and the number of doses after X. Some schedule codes hold Z or #, which are not explained here.

The assay deals with L1210 leukemia ip in BDF1 mice, survival T/C. The assay can be described thus: NCI In Vivo Anticancer Drug Screen. Data for tumor model L1210 Leukemia (intraperitoneal) in B6D2F1 (BDF1) mice. Conditions: T/C endpoint: mean survival time, higher T/C = longer survival.
The mark [1] stands for this setting: dose: 400.0 mg/kg/injection, schedule: Q04DX003 (ip), vehicle: saline.
The mark [2] stands for this setting: dose: 400.0 mg/kg/injection, schedule: Q01DX001 (ip), vehicle: saline.

Regarding `O=S1(=O)CC(Cl)C(Cl)C1` (stereo not given), the survivor count (dose: 25.0 mg/kg/injection, schedule: Q01DX009 (ip), vehicle: other) is reported as 5 of 6; the survivor count (dose: 25.0 mg/kg/injection, schedule: Q01DX009 (ip), vehicle: saline) is listed as 3 of 6; the survivor count (dose: 50.0 mg/kg/injection, schedule: Q01DX001 (ip), vehicle: saline with Tween-80) is 1 of 6; the survivor count (dose: 50.0 mg/kg/injection, schedule: Q01DX009 (ip), vehicle: other) is reported as 0 of 6; the survivor count (dose: 50.0 mg/kg/injection, schedule: Q01DX009 (ip), vehicle: saline) was 0 of 6; the survivor count (dose: 100.0 mg/kg/injection, schedule: Q01DX001 (ip), vehicle: other) is reported as 2 of 6. Besides, the survivor count is, setting by setting: (dose: 100.0 mg/kg/injection, schedule: Q04DX003 (ip), vehicle: saline with Tween-80) 0 of 6; (dose: 200.0 mg/kg/injection, schedule: Q01DX001 (ip), vehicle: other) 3 of 6; (dose: 200.0 mg/kg/injection, schedule: Q04DX003 (ip), vehicle: saline with Tween-80) 0 of 6; (dose: 400.0 mg/kg/injection, schedule: Q01DX001 (ip), vehicle: other) 0 of 6; (dose: 400.0 mg/kg/injection, schedule: Q04DX003 (ip), vehicle: saline with Tween-80) 0 of 6.

Take `[Cl][Dy]([Cl])[Cl]`: under setting [1], the survivor count is listed as 1 of 6.

For `O=c1oc(Cl)c(Cl)c(Cl)c1Cl`, the survivor count by setting is: (dose: 3.3 mg/kg/injection, schedule: Q01DX Z (ip), vehicle: methylcellulose (MC)) 6 of 6; (dose: 5.0 mg/kg/injection, schedule: Q01DX Z (ip), vehicle: methylcellulose (MC)) 3 of 6.

As to `CN=C(N)N(C)NCc1ccccc1`, the survivor count reads like this: (dose: 200.0 mg/kg/injection, schedule: Q01DX001 (ip), vehicle: saline) 1 of 6; under setting [2], 0 of 6.

Take `Nc1nccnc1N`: the survivor count is given as 2 of 6 (dose: 200.0 mg/kg/injection, schedule: Q01DX009 (ip), vehicle: saline) and 3 of 6 under setting [2].

With `c1ccc(OP(Oc2ccccc2)c2ccccc2)cc1`, under “dose: 400.0 mg/kg/injection, schedule: Q01DX009 (ip), vehicle: saline”, the survivor count is 2 of 6.

For `COc1cc(Cc2c3cc4c(cc3cc[n+]2C)OCO4)c(Oc2cc(Cc3c4cc5c(cc4cc[n+]3C)OCO5)ccc2OC)cc1OC`, the survivor count (dose: 12.5 mg/kg/injection, schedule: Q04DX003 (ip), vehicle: saline with Tween-80) is 1 of 6; the survivor count (dose: 25.0 mg/kg/injection, schedule: Q04DX003 (ip), vehicle: saline with Tween-80) is 2 of 6; the survivor count (dose: 50.0 mg/kg/injection, schedule: Q04DX003 (ip), vehicle: saline with Tween-80) is reported as 0 of 6; the survivor count (dose: 100.0 mg/kg/injection, schedule: Q04DX003 (ip), vehicle: saline) is 0 of 6; the survivor count (dose: 200.0 mg/kg/injection, schedule: Q04DX003 (ip), vehicle: saline) is listed as 0 of 6; the survivor count under setting [1] was 0 of 6.
